Results: paper PMC12859043

By UniProt entry, the sequences of proteins in these tests, tags left out. Residues count along the entry.
UniProt Q9NYQ6, residues 21-3014: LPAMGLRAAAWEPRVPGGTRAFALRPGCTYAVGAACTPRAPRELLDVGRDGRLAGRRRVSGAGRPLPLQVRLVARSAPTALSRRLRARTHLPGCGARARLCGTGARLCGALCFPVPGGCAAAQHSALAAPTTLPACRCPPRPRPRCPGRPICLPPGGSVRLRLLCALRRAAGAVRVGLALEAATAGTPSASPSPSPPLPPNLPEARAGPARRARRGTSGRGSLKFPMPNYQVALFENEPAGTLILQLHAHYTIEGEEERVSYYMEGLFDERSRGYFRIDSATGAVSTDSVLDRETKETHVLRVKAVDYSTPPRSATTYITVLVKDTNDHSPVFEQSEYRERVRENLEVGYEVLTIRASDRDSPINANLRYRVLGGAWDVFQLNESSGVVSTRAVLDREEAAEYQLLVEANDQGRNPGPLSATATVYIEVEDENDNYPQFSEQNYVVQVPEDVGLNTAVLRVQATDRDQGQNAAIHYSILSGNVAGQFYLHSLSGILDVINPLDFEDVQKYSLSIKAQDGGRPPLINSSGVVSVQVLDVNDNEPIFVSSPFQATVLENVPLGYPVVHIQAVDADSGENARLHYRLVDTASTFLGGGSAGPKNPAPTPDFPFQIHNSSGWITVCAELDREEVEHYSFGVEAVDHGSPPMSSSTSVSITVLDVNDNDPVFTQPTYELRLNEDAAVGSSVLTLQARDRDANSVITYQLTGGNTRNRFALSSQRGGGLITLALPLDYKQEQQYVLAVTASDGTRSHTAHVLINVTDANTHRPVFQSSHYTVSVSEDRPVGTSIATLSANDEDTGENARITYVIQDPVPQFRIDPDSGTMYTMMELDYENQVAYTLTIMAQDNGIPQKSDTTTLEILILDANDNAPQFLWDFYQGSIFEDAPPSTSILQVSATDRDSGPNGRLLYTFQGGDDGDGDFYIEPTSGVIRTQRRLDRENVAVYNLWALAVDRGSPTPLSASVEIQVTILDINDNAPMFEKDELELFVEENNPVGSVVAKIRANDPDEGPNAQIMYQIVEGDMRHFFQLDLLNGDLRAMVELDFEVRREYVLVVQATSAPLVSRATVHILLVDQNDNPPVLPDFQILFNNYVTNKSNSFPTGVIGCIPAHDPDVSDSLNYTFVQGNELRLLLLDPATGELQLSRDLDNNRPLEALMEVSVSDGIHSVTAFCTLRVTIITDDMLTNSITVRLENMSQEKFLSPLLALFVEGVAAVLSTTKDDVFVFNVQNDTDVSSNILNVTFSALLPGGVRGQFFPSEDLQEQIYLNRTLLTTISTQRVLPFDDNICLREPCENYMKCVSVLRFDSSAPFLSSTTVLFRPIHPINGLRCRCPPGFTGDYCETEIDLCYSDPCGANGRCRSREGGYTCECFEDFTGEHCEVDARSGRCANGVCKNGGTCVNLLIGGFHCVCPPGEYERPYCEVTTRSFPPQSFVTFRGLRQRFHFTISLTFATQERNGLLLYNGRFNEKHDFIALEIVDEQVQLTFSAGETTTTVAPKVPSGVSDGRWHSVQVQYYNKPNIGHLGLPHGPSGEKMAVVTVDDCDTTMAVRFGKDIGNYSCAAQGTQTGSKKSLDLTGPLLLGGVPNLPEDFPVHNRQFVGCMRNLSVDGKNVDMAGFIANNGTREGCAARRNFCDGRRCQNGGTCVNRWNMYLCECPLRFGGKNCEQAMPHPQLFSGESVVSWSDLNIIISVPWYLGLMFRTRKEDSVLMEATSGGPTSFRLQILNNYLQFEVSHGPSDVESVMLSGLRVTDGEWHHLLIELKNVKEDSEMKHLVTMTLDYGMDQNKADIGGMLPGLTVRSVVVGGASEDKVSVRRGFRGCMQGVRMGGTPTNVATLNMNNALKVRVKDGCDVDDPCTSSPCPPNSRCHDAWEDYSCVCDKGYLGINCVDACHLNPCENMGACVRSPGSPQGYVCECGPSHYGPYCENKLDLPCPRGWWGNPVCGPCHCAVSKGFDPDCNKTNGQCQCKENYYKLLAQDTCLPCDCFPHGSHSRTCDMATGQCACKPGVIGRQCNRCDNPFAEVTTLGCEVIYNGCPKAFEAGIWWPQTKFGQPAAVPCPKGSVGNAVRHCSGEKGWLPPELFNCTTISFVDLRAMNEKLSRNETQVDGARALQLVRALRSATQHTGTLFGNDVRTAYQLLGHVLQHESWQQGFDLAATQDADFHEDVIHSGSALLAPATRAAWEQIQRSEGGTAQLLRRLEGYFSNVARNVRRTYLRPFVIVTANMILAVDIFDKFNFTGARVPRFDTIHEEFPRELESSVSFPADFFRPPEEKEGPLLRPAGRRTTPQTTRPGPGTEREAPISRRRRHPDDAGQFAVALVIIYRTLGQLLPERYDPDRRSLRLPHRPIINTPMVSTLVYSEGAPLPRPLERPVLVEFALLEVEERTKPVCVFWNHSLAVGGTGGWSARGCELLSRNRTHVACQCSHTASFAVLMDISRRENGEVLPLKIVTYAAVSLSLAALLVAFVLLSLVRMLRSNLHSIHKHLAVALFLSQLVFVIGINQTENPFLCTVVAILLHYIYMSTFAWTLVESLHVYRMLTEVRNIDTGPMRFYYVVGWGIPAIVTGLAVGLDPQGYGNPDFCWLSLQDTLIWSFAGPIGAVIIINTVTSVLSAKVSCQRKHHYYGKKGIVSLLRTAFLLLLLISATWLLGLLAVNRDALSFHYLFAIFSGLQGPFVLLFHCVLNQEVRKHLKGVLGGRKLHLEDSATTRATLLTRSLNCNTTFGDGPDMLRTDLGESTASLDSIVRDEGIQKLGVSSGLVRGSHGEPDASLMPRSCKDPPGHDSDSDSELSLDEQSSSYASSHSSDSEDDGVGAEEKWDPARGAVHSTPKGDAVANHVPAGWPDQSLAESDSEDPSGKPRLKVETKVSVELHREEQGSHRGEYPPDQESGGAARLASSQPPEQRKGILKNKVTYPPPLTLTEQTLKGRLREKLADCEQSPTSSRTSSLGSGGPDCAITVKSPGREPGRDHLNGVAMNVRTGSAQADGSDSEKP
UniProt P49674: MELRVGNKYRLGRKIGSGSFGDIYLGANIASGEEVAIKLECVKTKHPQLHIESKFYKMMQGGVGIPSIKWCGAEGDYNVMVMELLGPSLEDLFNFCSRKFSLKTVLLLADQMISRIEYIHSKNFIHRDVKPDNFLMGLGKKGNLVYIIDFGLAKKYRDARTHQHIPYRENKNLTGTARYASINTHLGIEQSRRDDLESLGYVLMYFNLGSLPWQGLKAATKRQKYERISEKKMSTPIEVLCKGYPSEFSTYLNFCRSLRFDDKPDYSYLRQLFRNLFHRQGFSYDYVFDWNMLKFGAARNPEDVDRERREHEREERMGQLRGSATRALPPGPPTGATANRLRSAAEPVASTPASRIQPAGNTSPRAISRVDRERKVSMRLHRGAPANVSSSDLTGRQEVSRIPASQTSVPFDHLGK
UniProt Q8N4C8: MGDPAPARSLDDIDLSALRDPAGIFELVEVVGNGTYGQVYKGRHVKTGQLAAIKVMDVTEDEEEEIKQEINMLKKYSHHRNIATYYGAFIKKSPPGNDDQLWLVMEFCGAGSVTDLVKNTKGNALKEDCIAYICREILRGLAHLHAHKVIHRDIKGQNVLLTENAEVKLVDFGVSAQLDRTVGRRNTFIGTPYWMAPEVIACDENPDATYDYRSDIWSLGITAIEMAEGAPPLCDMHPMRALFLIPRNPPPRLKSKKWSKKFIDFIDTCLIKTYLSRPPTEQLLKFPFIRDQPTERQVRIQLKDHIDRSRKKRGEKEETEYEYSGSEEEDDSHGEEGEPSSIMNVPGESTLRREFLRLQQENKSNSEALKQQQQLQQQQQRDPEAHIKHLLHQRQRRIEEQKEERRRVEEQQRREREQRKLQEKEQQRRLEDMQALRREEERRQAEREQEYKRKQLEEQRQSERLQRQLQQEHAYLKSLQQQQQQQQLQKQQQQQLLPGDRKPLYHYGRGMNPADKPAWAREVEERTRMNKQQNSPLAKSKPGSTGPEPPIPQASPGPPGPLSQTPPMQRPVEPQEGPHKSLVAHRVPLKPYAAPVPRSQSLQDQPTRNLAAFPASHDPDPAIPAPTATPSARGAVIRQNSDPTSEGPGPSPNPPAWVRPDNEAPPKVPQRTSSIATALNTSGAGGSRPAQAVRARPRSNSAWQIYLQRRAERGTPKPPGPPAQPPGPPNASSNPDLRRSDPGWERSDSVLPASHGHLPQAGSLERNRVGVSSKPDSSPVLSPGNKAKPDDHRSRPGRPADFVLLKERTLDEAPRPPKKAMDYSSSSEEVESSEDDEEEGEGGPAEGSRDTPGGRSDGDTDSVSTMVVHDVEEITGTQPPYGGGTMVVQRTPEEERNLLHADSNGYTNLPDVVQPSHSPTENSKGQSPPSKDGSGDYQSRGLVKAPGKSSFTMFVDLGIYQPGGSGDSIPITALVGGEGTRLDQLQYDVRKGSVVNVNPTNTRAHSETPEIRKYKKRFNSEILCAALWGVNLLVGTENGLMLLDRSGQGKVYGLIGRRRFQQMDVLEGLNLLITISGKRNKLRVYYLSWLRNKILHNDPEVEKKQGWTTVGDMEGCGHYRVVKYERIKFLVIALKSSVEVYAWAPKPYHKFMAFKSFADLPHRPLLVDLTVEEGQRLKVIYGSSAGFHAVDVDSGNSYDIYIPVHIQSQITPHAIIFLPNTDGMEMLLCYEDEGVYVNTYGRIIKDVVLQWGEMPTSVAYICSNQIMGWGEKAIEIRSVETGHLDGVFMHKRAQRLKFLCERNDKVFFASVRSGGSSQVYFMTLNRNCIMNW
UniProt Q01973, residues 30-937: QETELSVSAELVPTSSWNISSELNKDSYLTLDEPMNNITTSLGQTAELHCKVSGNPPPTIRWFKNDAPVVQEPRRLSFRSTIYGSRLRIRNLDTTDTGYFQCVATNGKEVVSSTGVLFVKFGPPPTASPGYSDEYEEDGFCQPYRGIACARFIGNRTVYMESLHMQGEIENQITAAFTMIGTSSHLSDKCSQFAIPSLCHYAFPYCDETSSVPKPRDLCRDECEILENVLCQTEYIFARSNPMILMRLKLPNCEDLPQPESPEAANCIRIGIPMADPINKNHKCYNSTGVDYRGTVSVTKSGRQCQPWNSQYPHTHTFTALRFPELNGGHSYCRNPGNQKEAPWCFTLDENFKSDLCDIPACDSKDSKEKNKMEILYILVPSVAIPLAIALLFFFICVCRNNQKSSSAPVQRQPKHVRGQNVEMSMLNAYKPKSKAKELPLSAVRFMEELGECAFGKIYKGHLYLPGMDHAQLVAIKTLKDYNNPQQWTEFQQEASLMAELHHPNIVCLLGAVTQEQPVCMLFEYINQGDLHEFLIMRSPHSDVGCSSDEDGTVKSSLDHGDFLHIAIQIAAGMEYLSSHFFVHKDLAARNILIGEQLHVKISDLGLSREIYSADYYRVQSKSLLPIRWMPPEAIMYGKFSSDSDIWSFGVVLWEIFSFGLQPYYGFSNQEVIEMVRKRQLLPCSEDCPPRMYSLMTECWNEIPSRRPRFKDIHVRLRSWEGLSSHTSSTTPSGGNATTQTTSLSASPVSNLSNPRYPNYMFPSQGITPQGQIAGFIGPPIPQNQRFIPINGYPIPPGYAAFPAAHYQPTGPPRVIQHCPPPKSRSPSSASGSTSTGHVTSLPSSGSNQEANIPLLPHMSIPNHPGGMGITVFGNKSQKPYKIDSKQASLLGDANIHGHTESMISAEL
UniProt Q01974, residues 34-943: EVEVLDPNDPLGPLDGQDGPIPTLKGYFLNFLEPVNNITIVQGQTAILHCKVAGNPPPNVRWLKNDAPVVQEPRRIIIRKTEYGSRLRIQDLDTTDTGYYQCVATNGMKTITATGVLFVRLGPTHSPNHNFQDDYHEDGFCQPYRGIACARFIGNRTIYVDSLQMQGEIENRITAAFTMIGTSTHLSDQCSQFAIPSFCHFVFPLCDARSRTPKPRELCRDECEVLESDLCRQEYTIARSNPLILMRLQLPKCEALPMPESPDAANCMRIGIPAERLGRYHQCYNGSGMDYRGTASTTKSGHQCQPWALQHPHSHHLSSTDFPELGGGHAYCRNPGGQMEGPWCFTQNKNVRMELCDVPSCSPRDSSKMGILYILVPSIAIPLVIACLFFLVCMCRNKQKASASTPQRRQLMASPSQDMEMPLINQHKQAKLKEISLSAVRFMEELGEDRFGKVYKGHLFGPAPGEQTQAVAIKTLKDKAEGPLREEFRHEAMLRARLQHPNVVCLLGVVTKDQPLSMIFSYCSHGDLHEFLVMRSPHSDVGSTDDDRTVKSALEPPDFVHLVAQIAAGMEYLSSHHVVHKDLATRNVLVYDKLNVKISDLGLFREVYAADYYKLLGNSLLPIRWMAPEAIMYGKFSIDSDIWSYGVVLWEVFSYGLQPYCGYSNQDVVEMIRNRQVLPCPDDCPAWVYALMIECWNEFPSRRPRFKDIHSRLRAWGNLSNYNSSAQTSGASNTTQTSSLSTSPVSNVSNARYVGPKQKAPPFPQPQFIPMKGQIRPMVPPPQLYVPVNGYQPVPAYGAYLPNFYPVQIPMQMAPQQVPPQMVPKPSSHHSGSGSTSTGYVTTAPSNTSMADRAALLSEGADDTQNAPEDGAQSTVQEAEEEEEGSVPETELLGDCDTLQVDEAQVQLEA

How the values were obtained:
Experiment in all cases: proximity labelling; miniTurboID-V5-PRICKLE1-3 baits in stable HEK T-REx 293 TetON cells; doxycycline 1 μg/mL overnight, biotin 50 μM 6 h; streptavidin beads, DIA LC-MS/MS; control miniTurboID-V5 alone; five biological replicates
[1] = target: T1, miniTurboID-V5-PRICKLE3 (human) (UniProt O43900)
T1 sequence: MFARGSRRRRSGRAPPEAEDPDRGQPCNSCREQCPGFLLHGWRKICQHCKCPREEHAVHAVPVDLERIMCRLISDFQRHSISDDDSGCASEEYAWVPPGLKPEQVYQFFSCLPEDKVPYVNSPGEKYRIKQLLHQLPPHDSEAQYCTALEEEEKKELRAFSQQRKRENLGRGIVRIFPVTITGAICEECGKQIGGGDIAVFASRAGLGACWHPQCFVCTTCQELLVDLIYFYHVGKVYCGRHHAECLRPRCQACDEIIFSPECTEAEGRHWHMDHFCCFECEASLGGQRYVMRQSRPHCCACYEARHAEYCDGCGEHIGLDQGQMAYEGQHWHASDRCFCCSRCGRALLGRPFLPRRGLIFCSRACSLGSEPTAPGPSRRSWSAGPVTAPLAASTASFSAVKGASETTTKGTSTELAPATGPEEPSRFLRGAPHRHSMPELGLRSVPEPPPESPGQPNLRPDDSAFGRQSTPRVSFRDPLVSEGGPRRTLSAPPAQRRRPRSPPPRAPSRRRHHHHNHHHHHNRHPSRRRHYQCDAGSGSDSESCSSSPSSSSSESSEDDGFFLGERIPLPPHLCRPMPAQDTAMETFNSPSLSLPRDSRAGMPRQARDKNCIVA

[2] = target: T2, miniTurboID-V5-PRICKLE1 (human) (UniProt Q96MT3)
T2 sequence: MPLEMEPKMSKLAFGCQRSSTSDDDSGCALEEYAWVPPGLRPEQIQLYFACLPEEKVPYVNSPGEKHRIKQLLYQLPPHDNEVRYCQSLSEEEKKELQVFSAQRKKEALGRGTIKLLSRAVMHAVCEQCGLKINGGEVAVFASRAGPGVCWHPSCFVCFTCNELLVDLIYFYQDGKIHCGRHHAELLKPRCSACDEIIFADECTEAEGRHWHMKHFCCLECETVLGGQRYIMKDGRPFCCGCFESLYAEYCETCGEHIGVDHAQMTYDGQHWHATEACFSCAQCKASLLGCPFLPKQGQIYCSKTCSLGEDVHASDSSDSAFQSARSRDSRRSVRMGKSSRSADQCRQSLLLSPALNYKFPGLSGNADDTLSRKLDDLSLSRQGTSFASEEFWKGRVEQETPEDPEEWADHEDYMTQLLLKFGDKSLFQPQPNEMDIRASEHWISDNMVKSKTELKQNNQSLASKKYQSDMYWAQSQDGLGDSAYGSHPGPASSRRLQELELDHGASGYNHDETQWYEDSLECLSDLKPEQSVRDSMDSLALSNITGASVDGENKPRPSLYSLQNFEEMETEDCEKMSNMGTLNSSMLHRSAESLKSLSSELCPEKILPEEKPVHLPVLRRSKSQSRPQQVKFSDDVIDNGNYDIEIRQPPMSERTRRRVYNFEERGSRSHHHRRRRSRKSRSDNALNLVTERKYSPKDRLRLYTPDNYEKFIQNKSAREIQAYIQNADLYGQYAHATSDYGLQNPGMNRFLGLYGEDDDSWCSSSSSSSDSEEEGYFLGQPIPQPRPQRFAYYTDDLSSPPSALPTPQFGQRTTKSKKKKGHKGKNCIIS

[3] = target: T3, miniTurboID-V5-PRICKLE2 (human) (UniProt Q7Z3G6)
T3 sequence: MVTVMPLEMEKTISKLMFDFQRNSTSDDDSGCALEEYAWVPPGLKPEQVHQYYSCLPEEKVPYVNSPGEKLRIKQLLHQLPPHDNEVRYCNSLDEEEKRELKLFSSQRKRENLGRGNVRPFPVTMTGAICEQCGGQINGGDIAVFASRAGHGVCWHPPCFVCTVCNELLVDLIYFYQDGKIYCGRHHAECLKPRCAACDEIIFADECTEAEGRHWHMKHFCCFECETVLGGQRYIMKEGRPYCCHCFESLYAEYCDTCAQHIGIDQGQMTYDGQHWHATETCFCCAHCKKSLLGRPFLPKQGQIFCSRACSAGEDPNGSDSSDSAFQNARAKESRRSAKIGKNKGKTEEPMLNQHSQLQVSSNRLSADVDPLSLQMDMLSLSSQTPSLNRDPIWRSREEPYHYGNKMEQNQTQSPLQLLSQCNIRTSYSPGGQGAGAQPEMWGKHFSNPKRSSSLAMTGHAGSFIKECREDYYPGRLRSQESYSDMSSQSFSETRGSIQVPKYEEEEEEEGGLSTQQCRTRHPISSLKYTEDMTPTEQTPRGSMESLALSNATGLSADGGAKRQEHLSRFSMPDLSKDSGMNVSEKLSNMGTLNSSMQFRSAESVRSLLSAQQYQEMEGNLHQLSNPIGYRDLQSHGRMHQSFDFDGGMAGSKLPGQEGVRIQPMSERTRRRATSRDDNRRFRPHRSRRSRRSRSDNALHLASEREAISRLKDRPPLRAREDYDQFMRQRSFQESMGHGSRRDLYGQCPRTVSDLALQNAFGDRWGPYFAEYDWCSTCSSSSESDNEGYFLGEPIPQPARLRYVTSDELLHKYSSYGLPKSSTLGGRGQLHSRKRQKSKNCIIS

[4] = target: T1, miniTurboID-V5-PRICKLE3 (human); remark: listed apart in the source

“CELSR1 (endogenous) (from UniProt Q9NYQ6 21-3014) (receptor)” was tested, and the binding [1] was “binds”.

With “CELSR2 (endogenous) (from UniProt Q9HCU4 32-2923) (receptor)” the binding [1] was “binds”.

With “CEP290 (endogenous) (from UniProt O15078 1-2479)” the binding [2] was “binds”.

For “Casein kinase 1ε (endogenous) (from UniProt P49674 1-416) (enzyme)”, the binding [3] was “binds”, the binding [2] was “binds” and the binding [1] was “binds”.

In the case of “Casein kinase CK2 (endogenous) (human (endogenous in HEK T-REx 293)) (enzyme)”, the binding [3] is reported as “binds” and the binding [1] is reported as “binds”.

With “Misshapen-like kinase 1 (endogenous) (from UniProt Q8N4C8 1-1332) (enzyme)” the binding [3] was “binds” and the binding [1] was “binds”.

“ROR1 (endogenous) (from UniProt Q01973 30-937) (receptor)” was tested, and the binding [1] was “binds”.

“ROR2 (endogenous) (from UniProt Q01974 34-943) (receptor)” was tested, and the binding [1] was “binds”.

B1: DVL1 (endogenous) (protein, UniProt O14640 1-695)
chain: MAETKIIYHMDEEETPYLVKLPVAPERVTLADFKNVLSNRPVHAYKFFFKSMDQDFGVVKEEIFDDNAKLPCFNGRVVSWLVLAEGAHSDAGSQGTDSHTDLPPPLERTGGIGDSRPPSFHPNVASSRDGMDNETGTESMVSHRRERARRRNREEAARTNGHPRGDRRRDVGLPPDSASTALSSELESSSFVDSDEDGSTSRLSSSTEQSTSSRLIRKHKRRRRKQRLRQADRASSFSSITDSTMSLNIVTVTLNMERHHFLGISIVGQSNDRGDGGIYIGSIMKGGAVAADGRIEPGDMLLQVNDVNFENMSNDDAVRVLREIVSQTGPISLTVAKCWDPTPRSYFTVPRADPVRPIDPAAWLSHTAALTGALPRYGTSPCSSAVTRTSSSSLTSSVPGAPQLEEAPLTVKSDMSAVVRVMQLPDSGLEIRDRMWLKITIANAVIGADVVDWLYTHVEGFKERREARKYASSLLKHGFLRHTVNKITFSEQCYYVFGDLCSNLATLNLNSGSSGTSDQDTLAPLPHPAAPWPLGQGYPYQYPGPPPCFPPAYQDPGFSYGSGSTGSQQSEGSKSSGSTRSSRRAPGREKERRAAGAGGSGSESDHTAPSGVGSSWRERPAGQLSRGSSPRSQASATAPGLPPPHPTTKAYTVVGGPPGGPPVRELAAVPPELTGSRQSFQKAMGNPCEFFVDIM
In the case of B1, the binding [4] is reported as “binds”.

B2: SRCIN1 (endogenous) (protein, UniProt Q9C0H9 1-1183)
chain: MGNAPSQDPERSSPPMLSADDAEYPREYRTLGGGGGGGSGGRRFSNVGLVHTSERRHTVIAAQSLEALSGLQKADADRKRDAFMDHLKSKYPQHALALRGQQDRMREQPNYWSFKTRSSRHTQGAQPGLADQAAKLSYASAESLETMSEAELPLGFSRMNRFRQSLPLSRSASQTKLRSPGVLFLQFGEETRRVHITHEVSSLDTLHALIAHMFPQKLTMGMLKSPNTAILIKDEARNVFYELEDVRDIQDRSIIKIYRKEPLYAAFPGSHLTNGDLRREMVYASRESSPTRRLNNLSPAPHLASGSPPPGLPSGLPSGLQSGSPSRSRLSYAGGRPPSYAGSPVHHAAERLGGAPAAQGVSPSPSAILERRDVKPDEDLASKAGGMVLVKGEGLYADPYGLLHEGRLSLAAAAGDPFAYPGAGGLYKRGSVRSLSTYSAAALQSDLEDSLYKAAGGGGPLYGDGYGFRLPPSSPQKLADVAAPPGGPPPPHSPYSGPPSRGSPVRQSFRKDSGSSSVFAESPGGKTRSAGSASTAGAPPSELFPGPGERSLVGFGPPVPAKDTETRERMEAMEKQIASLTGLVQSALLRGSEPETPSEKIEGSNGAATPSAPCGSGGRSSGATPVSGPPPPSASSTPAGQPTAVSRLQMQLHLRGLQNSASDLRGQLQQLRKLQLQNQESVRALLKRTEAELSMRVSEAARRQEDPLQRQRTLVEEERLRYLNDEELITQQLNDLEKSVEKIQRDVSHNHRLVPGPELEEKALVLKQLGETLTELKAHFPGLQSKMRVVLRVEVEAVKFLKEEPQRLDGLLKRCRGVTDTLAQIRRQVDEGVWPPPNNLLSQSPKKVTAETDFNKSVDFEMPPPSPPLNLHELSGPAEGASLTPKGGNPTKGLDTPGKRSVDKAVSVEAAERDWEEKRAALTQYSAKDINRLLEETQAELLKAIPDLDCASKAHPGPAPTPDHKPPKAPHGQKAAPRTEPSGRRGSDELTVPRYRTEKPSKSPPPPPPRRSFPSSHGLTTTRTGEVVVTSKKDSAFIKKAESEELEVQKPQVKLRRAVSEVARPASTPPIMASAIKDEDDEDRIIAELESGGGSVPPMKVVTPGASRLKAAQGQAGSPDKSKHGKQRAEYMRIQAQQQATKPSKEMSGSNETSSPVSEKPSASRTSIPVLTSFGARNSSISF
For B2, the binding [4] was “binds”.

B3: EPB41L4A (endogenous) (protein, UniProt Q9HCS5 1-686)
chain: MGCFCAVPEEFYCEVLLLDESKLTLTTQQQGIKKSTKGSVVLDHVFHHVNLVEIDYFGLRYCDRSHQTYWLDPAKTLAEHKELINTGPPYTLYFGIKFYAEDPCKLKEEITRYQFFLQVKQDVLQGRLPCPVNTAAQLGAYAIQSELGDYDPYKHTAGYVSEYRFVPDQKEELEEAIERIHKTLMGQIPSEAELNYLRTAKSLEMYGVDLHPVYGENKSEYFLGLTPVGVVVYKNKKQVGKYFWPRITKVHFKETQFELRVLGKDCNETSFFFEARSKTACKHLWKCSVEHHTFFRMPENESNSLSRKLSKFGSIRYKHRYSGRTALQMSRDLSIQLPRPDQNVTRSRSKTYPKRIAQTQPAESNSISRITANMENGENEGTIKIIAPSPVKSFKKAKNENSPDTQRSKSHAPWEENGPQSGLYNSPSDRTKSPKFPYTRRRNPSCGSDNDSVQPVRRRKAHNSGEDSDLKQRRRSRSRCNTSSGSESENSNREYRKKRNRIRQENDMVDSAPQWEAVLRRQKEKNQADPNNRRSRHRSRSRSPDIQAKEELWKHIQKELVDPSGLSEEQLKEIPYTKIETQGDPIRIRHSHSPRSYRQYRRSQCSDGERSVLSEVNSKTDLVPPLPVTRSSDAQGSGDATVHQRRNGSKDSLMEEKPQTSTNNLAGKHTAKTIKTIQASRLKTET
With B3 the binding [4] was “binds”.

Read-outs that look alike come from different tables or passages of the source. These are yes or no findings as the source states them, for the method shown. In cells and extracts the contact can be indirect. These calls come from enrichment with a bait or labelling near it, and not all partners need be listed. Sequences can lack the tags named with a protein.
